42 sequences from PMC7819943, “Rice protein-binding microarrays: a tool to detect cis-acting elements near promoter regions in rice” can be followed below.

The chains behind the UniProt entries cited, without tags or fusion partners.
UniProt Q0JBA9, entry or part of it: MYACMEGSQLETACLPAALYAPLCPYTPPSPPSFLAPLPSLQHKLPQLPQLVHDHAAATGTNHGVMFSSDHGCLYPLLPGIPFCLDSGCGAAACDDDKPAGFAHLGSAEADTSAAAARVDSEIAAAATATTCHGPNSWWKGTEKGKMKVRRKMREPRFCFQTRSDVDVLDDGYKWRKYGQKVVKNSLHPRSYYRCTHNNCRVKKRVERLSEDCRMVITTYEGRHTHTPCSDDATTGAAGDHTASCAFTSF

The other results are listed elsewhere or left out.

The target in the assay is OsWRKY34 (Oryza sativa, UniProt Q0JBA9 1-250). The assay is described as follows: protein-binding microarray (RPBM); PBS, 2% BSA, 51.3 ng/ul salmon testes DNA, 50 uM zinc acetate, 200 nM TF, 25 C, 1 h; high values mean tight binding. To be noted: protein: recombinant; tags: N-terminal polyhistidine and DsRed monomer fusion (pET32a); label: CyDye5-dUTP incorporated in the synthesized complementary strand; 3' TTTTT single-stranded linker to array surface; dsDNA, one strand shown. The method in brief: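 An Axon 4000B scanner gave the binding signal as per-feature fluorescence intensity in arbitrary units. This followed washing of a custom Agilent array that had been incubated for 1 h at 25 °C with 200 nM protein in PBS, 2% BSA, salmon testes DNA and 50 µM zinc acetate. The proteins were transcription factors fused at the N-terminus to polyhistidine and DsRed, expressed in E. coli BL21-CodonPlus and purified on Ni–NTA.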
With “GACGAGATGTCACAAGTATACTTCTTGCCGTTCAAACTTTCGGAGTCACCTAGTGCAG”, the binding signal was 9540 fluorescence intensity (a.u.).

For the sequence “ATTTGAGGGCTGGATGACTAGGTATAAAATGGGGCGGGCTCGGAGTCACCTAGTGCAG”, the binding signal was 9280 fluorescence intensity (a.u.).

“TGTTTTCCGCTCGTTTTATCCGTAGCCCTAAGGCTGTGTTCGGAGTCACCTAGTGCAG”: the binding signal is 12800 fluorescence intensity (a.u.).

In the case of “ATGCCACATATTTCGTCCGTTTGAGTTTATTTTTTACATGCGGAGTCACCTAGTGCAG”, the binding signal was 12300 fluorescence intensity (a.u.).

On to “TCAGCTATGCACATTGAGCCTCACTTCTTGTTATCAATTACGGAGTCACCTAGTGCAG”, for which the binding signal was 8210 fluorescence intensity (a.u.).

“GGGGTTTTGCAACTATTTATTGGTCCTTCTGGATCTCGGACGGAGTCACCTAGTGCAG”: the binding signal is 8100 fluorescence intensity (a.u.).

On to “CCCAGTTTTATTTCTGCAGTTCATTTTATGAGAGCATTCTCGGAGTCACCTAGTGCAG”, for which the binding signal is 8120 fluorescence intensity (a.u.).

In the case of “GGCCATTTTGTACATCAATTCTTGAGTCTTCAGTTTGTTACGGAGTCACCTAGTGCAG”, the binding signal is 8620 fluorescence intensity (a.u.).

Take “GTGGCTTGGGCAATTACGCCACAGCTCACTGAATTCGATCCGGAGTCACCTAGTGCAG”: the binding signal was 9410 fluorescence intensity (a.u.).

As for “GCTGAACCTGCCGCCCAGCCCGTCGCGGCTGCCGTTCATCCGGAGTCACCTAGTGCAG”, the binding signal is 8800 fluorescence intensity (a.u.).

“GGCTTCCGCCACACTTGACCGACGCCCCTCCGCTGGCCAGCGGAGTCACCTAGTGCAG”: the binding signal is 9130 fluorescence intensity (a.u.).

For the sequence “ATAGTGATATGTTTCAATGTGCGTCTAGAGTGTGTTTCATCGGAGTCACCTAGTGCAG”, the binding signal is 8290 fluorescence intensity (a.u.).

Take “AAAATTCTGACTATCACGTACACTATTTACATTCATATTTCGGAGTCACCTAGTGCAG”: the binding signal is 8180 fluorescence intensity (a.u.).

For “TTTTTAACTAACGTTTGACCACTCGTCTTATTTAAAAATTCGGAGTCACCTAGTGCAG”, the binding signal is 8220 fluorescence intensity (a.u.).

As to “TAGTAGGTCCCACCATCTCTCTTTTCACATTCATCTCTCCCGGAGTCACCTAGTGCAG”, the binding signal was 8250 fluorescence intensity (a.u.).

“TTTTCTTCTGACGCCAACAATTGGTAAGCTTCATTGGTTCCGGAGTCACCTAGTGCAG”: the binding signal was 8650 fluorescence intensity (a.u.).

“ACTTTGTTTACACGGTGGTTCTCTCCTTTTCTTCTTCTCACGGAGTCACCTAGTGCAG”: the binding signal was 8480 fluorescence intensity (a.u.).

For the sequence “CGCCGTCACTGCATGGTGATCTTCATCACCGTCGCCTCACCGGAGTCACCTAGTGCAG”, the binding signal was 8390 fluorescence intensity (a.u.).

As to “TCCAAGAAAGCCGTTGACCAATTTACATGACATCAAACTACGGAGTCACCTAGTGCAG”, the binding signal was 12000 fluorescence intensity (a.u.).

Consider “ATGGTCAAACATGTGTTCAAAATTCAACGCGTCATCTATTCGGAGTCACCTAGTGCAG”, for which the binding signal was 8320 fluorescence intensity (a.u.).

As for “GAGATTAGGGGTAGGGTTGGAAAAATAAATATGGGGCTTTCGGAGTCACCTAGTGCAG”, the binding signal is 12100 fluorescence intensity (a.u.).

“GATTATTATTGACGGTGACTATTTGACCTCCTTTGCTATACGGAGTCACCTAGTGCAG”: the binding signal was 9190 fluorescence intensity (a.u.).

On to “AGCACCAGGTGTTTATTAGCTTCTCTCCACGTCTTCTTCCCGGAGTCACCTAGTGCAG”, for which the binding signal was 8700 fluorescence intensity (a.u.).

As for “CACTTTCCGGGCTTGAAATTAATTTCTTTTGGTTAGTTTACGGAGTCACCTAGTGCAG”, the binding signal is 10300 fluorescence intensity (a.u.).

As to “TCCCGCCGCGACCCAAGTCTACTGCTTGCTTTCCTCCTCTCGGAGTCACCTAGTGCAG”, the binding signal was 11900 fluorescence intensity (a.u.).

For the sequence “CGCGCTTTATTTTCCAGTAATTAATGTACTCGATTATGTACGGAGTCACCTAGTGCAG”, the binding signal is 8060 fluorescence intensity (a.u.).

Turning to “ATTAACACTAATTTACATCATTCTCAGCCTGTTTTCACTTCGGAGTCACCTAGTGCAG”, the binding signal was 9540 fluorescence intensity (a.u.).

In the case of “CACGGGCCGACTCTTATCGCCCGGAGCCGGTCTCGTCTCACGGAGTCACCTAGTGCAG”, the binding signal is 8170 fluorescence intensity (a.u.).

As to “GCTCAGCTCTTCACTTCTGCTGCATTCACACCACCACACTCGGAGTCACCTAGTGCAG”, the binding signal was 9310 fluorescence intensity (a.u.).

With “GATTGTTACCATGTTTTCAGCGGCGCGCTCAGGGACCACTCGGAGTCACCTAGTGCAG”, the binding signal is 12300 fluorescence intensity (a.u.).

For “TGCAATCCTCTGTTTTACACTTCAATTCCTGTCAGAATCCCGGAGTCACCTAGTGCAG”, the binding signal was 8080 fluorescence intensity (a.u.).

Consider “GCCTGACTTATCTCTTCACTCGGCTTGCTGGAATGACCTCCGGAGTCACCTAGTGCAG”, for which the binding signal was 10100 fluorescence intensity (a.u.).

Regarding “GGATATGGTTGTTGCTGAATTGTTTAATTTTCGTAGAAAGCGGAGTCACCTAGTGCAG”, the binding signal was 11500 fluorescence intensity (a.u.).

Regarding “TTTCATCCCTACACCAACCCAATCCTTTGCGTTTTCGAATCGGAGTCACCTAGTGCAG”, the binding signal is 10700 fluorescence intensity (a.u.).

Turning to “TTTGAGAAGGGCTTTGCTGCTGTGATTGGTTGTTCTTGGTCGGAGTCACCTAGTGCAG”, the binding signal was 9030 fluorescence intensity (a.u.).

As to “AGTTTTTTTACCGCGTTATTTTTTTTCGAAGATTATTTTACGGAGTCACCTAGTGCAG”, the binding signal was 10100 fluorescence intensity (a.u.).

Turning to “TCGATTTGACAGTTCGTGCGGTGCGGCTCCCAATAATTTCCGGAGTCACCTAGTGCAG”, the binding signal is 8130 fluorescence intensity (a.u.).

On to “TTTGTATGACTGTCTGTGTGCGATCCCATCTGAAAATCCTCGGAGTCACCTAGTGCAG”, for which the binding signal is 8300 fluorescence intensity (a.u.).

Consider “CAAGTAAGACCACCCAACGATTCATACCTATAGCCGCCACCGGAGTCACCTAGTGCAG”, for which the binding signal was 8050 fluorescence intensity (a.u.).

As to “GTTGATTTGTTGTGTGTGTTCTCTCCCCTAGGGGATTTTGCGGAGTCACCTAGTGCAG”, the binding signal is 10100 fluorescence intensity (a.u.).

As to “TCCTCTCATCACCACCACCACCCCACCTCCTTCTCTCCCTCGGAGTCACCTAGTGCAG”, the binding signal is 8100 fluorescence intensity (a.u.).

Consider “ATCTTGTGCAGTACTCCATCCGTTTCACAATATAATCATTCGGAGTCACCTAGTGCAG”, for which the binding signal was 8650 fluorescence intensity (a.u.).
